PubChem BioAssay AID1259254 | NCATS, 2017
In all, the deposit lists about 59,000 reagents; below is a random part of them. About 1,550 of all reagents (2.6%) count as active. 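G2 share is only a proxy for re-replication; each gene was hit by three separate siRNAs, and active genes were retested.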 A number with no mark means an inactive call. The numbers tell different reagents against one gene apart. Further read-outs or replicates are left out here. The record does not give: the amount of reagent.

Test: 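Finding genes that stop cells copying their DNA twice in one cycle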 (primary screen)
System: human HCT116 colorectal cancer cells
Knock-down reagent: single siRNA against human genes
Timing: 3 days
Measured: 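Imaged Hoechst DNA stain sorts each cell into a cycle phase by DNA amount; per plate, G2 fraction set to 0% for non-targeting and 100% for GMNN siRNA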
Reading the numbers: G2 robust z-score: higher = more G2 cells, more excess DNA replication
Hit rule: 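An siRNA counts as active if its G2 robust z-score lies at least 5 MADs above the screen median; here such calls match roughly 38% of GMNN control or more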

target gene	reagent no.	G2 robust z-score
EFCAB8	1	1.94
EFCAB8	2	-0.589
EFCAB8	3	1.52
SH2D1A	1	-0.467
SH2D1A	2	1.46
SH2D1A	3	-0.709
FBXO40	1	3.04
FBXO40	2	0.487
FBXO40	3	2.53
SHISAL1	1	-0.69
SHISAL1	2	1.94
SHISAL1	3	1.09
RIMS4	1	-0.0967
RIMS4	2	-0.522
RIMS4	3	-0.906
SIRT7	1	-0.642
SIRT7	2	-0.373
SIRT7	3	1.68
SWAP70	1	0.922
SWAP70	2	-0.383
SWAP70	3	3.76
MT1M	1	-0.137
MT1M	2	-0.341
MT1M	3	2.03
SPG7	1	0.424
SPG7	2	0.233
SPG7	3	-0.313
DDX31	1	-0.84
DDX31	2	-0.255
DDX31	3	-0.757

A few values from above.
Under “G2 robust z-score”, FBXO40 #3 is entered as 2.53
For “G2 robust z-score”, SWAP70 #3 reads 3.76
FBXO40 #1, G2 robust z-score → 3.04
Entry for SWAP70 #2 under “G2 robust z-score”: -0.383
Value for SIRT7 #2 in “G2 robust z-score”: -0.373
Value of SIRT7 #1 under “G2 robust z-score”: -0.642

The listing continues.
target gene	reagent no.	G2 robust z-score
BECN2	1	0.998
BECN2	2	0.939
BECN2	3	0.65
AGTPBP1	1	3.18
AGTPBP1	2	-0.623
AGTPBP1	3	0.143
PABPN1	1	1.11
PABPN1	2	-0.243
PABPN1	3	-0.0649
ARTN	1	0.873
ARTN	2	-0.308
ARTN	3	2.49
CDC37L1	1	0.176
CDC37L1	2	-0.0549
CDC37L1	3	0.784
ACO1	1	1.05
ACO1	2	-0.466
ACO1	3	3.51
COL18A1-AS1	1	-0.202
COL18A1-AS1	2	0.0566
COL18A1-AS1	3	-0.808
LOC728254 (retired record)	1	0.0268
LOC728254 (retired record)	2	0.248
LOC728254 (retired record)	3	-0.697
CHI3L2	1	0.0154
CHI3L2	2	0.0955
CHI3L2	3	1.58
FEZF1	1	-0.95
FEZF1	2	0.277
FEZF1	3	-0.468
FRMD4B	1	-0.859
FRMD4B	2	-0.0015
FRMD4B	3	0.268
FAM238C	1	-0.553
FAM238C	2	5.5 (active)
FAM238C	3	2.77
PCSK1	1	0.346
PCSK1	2	-0.102
PCSK1	3	1.62
